From publication PMC5763115, “Nesprin-2 Interacts with Condensin Component SMC2” (International Journal of Cell Biology, 2017)
These are yes or no findings as the source states them, for the method shown. Binding seen in cells or lysates may run through a third protein. Tags and fused reporters may be left off the sequences shown.

Target: T1, GST-Nesprin-2-SMC (human) (UniProt Q8WXH0)
T1 sequence: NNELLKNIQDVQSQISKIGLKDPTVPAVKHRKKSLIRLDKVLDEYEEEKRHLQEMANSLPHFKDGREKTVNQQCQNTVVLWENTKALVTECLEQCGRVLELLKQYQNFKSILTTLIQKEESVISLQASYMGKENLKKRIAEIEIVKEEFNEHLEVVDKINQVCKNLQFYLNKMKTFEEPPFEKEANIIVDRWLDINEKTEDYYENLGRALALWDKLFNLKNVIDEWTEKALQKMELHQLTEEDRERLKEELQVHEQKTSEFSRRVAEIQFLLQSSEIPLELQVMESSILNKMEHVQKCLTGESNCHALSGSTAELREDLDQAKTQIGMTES
Assay: pull-down; GST-Nesprin-2-SMC or GST on Glutathione-Sepharose 4B beads incubated overnight with HaCaT cell lysate (50 mM Tris-HCl pH 7.5, 150 mM NaCl, 1% Nonidet P-40, 0.5% sodium deoxycholate); western blot; unsynchronized cells, and for SMC2 also cells in G0/G1 and enriched for S and M phase (RO-3306 or thymidine/Nocodazole); only the target purified

- binding: no binding
Substance: SMC1 (human (endogenous in HaCaT))
